Assay results published in PubChem BioAssay AID1688 (National Center for Advancing Translational Sciences (NCATS), 2009).
About 2,400 (1.1%) of roughly 220,000 compounds were called active. Inconclusive means that the source gave no clear call. Such entries were picked first, then a sample of the others. Calls follow the shape of the dose curve; as a rule, active = well fitted inhibition curve with a large enough effect; inconclusive = small, poorly fitted or top-dose-only effect, or effect the other way; inactive = no such curve, though single readings can be large or run the other way. Potencies beside an inconclusive call are fits to weak or partial responses and may not hold up.
% is scaled to controls: 0 for no effect and ±100 for the full control effect; potency is read from the fitted curve at half-maximal effect.

Experiment: qHTS Multiplex Assay to Identify Dual Action Probes in a Cell Model of Huntington: Aggregate Formation (GFP); also: nearly all actives have a fitted effect of over 60% in size
Settings: PC12 HttQ103-GFP aggregates, Acumen cytometry, 40 h; activity change, negative = inhibition: at 46.1 µM (top of the series) unless noted
Method in brief: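 Using laser scanning cytometry, GFP-positive aggregates were counted after lysis of PC12 cells induced with 100 nM tebufenozide to express HTT exon 1 Q103–GFP. Compounds were tested in titration.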
With `O=C(CSCc1ccc(C(=O)O)cc1)Nc1ccc2ccccc2c1` the Potency was active: 39.8 µM. In the case of `Cc1cc(NC(=O)c2ccccc2F)n(-c2nc3ccccc3[nH]2)n1`, the Potency is reported as inconclusive: 35.5 µM [inhibitor, single point]. For `CO/N=C/c1ccc(N2CCN(C(=O)c3ccc(Cl)cc3Cl)CC2)c([N+](=O)[O-])c1`, the Potency was active: 17.8 µM. In the case of `COc1ccc(C(C)n2c(C)c3c(C)nnc(C)c3c2C)cc1` (stereo not drawn), the Potency is reported as inconclusive: 11.2 µM [inhibitor, single point]. For `Cc1oc2cc(O)cc(C)c2c(=O)c1-c1cnn(-c2ccccc2)c1`, the Potency was inconclusive: 2.24 µM [inhibitor, partial curve]. With `O=[N+]([O-])c1ccc(O)c(/C=N/Nc2ccc(Cl)nn2)c1` the Potency was inconclusive: 0.1 µM [inhibitor, full curve]. In the case of `O=C(Oc1ccc(C(=S)N2CCOCC2)cc1Br)c1ccccc1F`, the Potency is reported as “inactive”. In the case of `O=C1CN2NC(=S)N(c3ccccc3)C2=CN1c1ccc(Cl)cc1`, the Potency is reported as inconclusive: 1.12 µM [activator, full curve, poor fit]. With `Cc1ccsc1C1Nc2ccccc2C(=O)N1O` (stereo not drawn) the Potency was inconclusive: 22.4 µM [inhibitor, single point]. With `CCSc1nnc(-c2cnn(-c3ccccc3)c2-n2cccc2)n1C` the Potency was “inactive”. With `COc1ccc(S(=O)(=O)Nc2cccc(SC)c2)cc1OC` the Potency was active: 0.708 µM. In the case of `CC1CC(CCC(=O)NC(=S)Nc2ccc(S(N)(=O)=O)cc2)C(=O)O1` (stereo not drawn), the Potency is reported as inconclusive: 0.562 µM [activator, full curve, poor fit]. For `Clc1ccccc1C(c1ccccc1)(c1ccccc1)n1ccnc1`, the Potency was inconclusive: 11.2 µM [inhibitor, single point]. In the case of `CN(C)CCNC(=O)COc1ccc(Cl)cc1Cl`, the Potency is reported as “inactive”. With `Cc1cc(NS(=O)(=O)c2ccc(NC(=O)c3cc(-c4cccnc4)nc4ccc(Cl)cc34)cc2)no1` the Potency was “inactive”. For `CC(C)NC(=O)C1CCCN(S(C)(=O)=O)C1` (stereo not drawn), the Potency was “inactive”. With `Cc1ccc(/C=N/NC(=O)C2=NNC(c3ccccc3)(c3ccccc3)C2)c(O)c1` the Potency was inconclusive: 6.31 µM [inhibitor, full curve, poor fit]. In the case of `Cc1cnc(NC(=O)c2cccc(S(=O)(=O)N3CC(C)OC(C)C3)c2)s1` (stereo not drawn), the Potency is reported as inconclusive: 12.6 µM [inhibitor, single point]. For `O=C(NCc1ccccn1)c1cc(-c2ccc(Cl)cc2)nc2ccccc12`, the Potency was inconclusive: 17.8 µM [inhibitor, partial curve]. For `O=C1CCC/C(=N\NC(=O)c2ccc(COc3ccccc3-c3ccccc3)cc2)C1`, the Potency was “inactive”. With `CN1CCN(c2nc(-c3ccccc3)nc(-c3ccccc3)c2C#N)CC1` the Potency was inconclusive: 35.5 µM [inhibitor, single point]. For `Cc1cc(C(=O)CSc2nc(N)cc(=O)[nH]2)c(C)n1CCc1ccc(F)cc1`, the Potency was inconclusive: 31.6 µM [inhibitor, single point]. In the case of `CCCC(=O)NCc1ccc2c(c1)cc(C)n2C`, the Potency is reported as “inactive”. With `CCOC(=O)C1CCN(C(=S)Nc2ccc(S(N)(=O)=O)cc2)CC1` the Potency was “inactive”. For `N#CC1=C(N)NC(SCC(=O)c2ccc(Cl)cc2)=C(C#N)C12CCCC2`, the Potency was inconclusive: 35.5 µM [inhibitor, single point]. In the case of `CCOC(=O)c1c(NC(=O)CN(CC)CC)sc2c1CCN(C(=O)OCC)C2`, the Potency is reported as inconclusive: 0.316 µM [inhibitor, full curve]. In the case of `c1ccc2c(c1)ccc1nnc(SCc3ccc4c(c3)OCO4)n12`, the Potency is reported as inconclusive: 5.62 µM [inhibitor, single point]. In the case of `O=[N+]([O-])c1cc(C(F)(F)F)ccc1NCCNC(=S)Nc1ccc(Cl)cc1`, the Potency is reported as inconclusive: 35.5 µM [inhibitor, single point]. With `COc1cc2c(cc1/C=C1/NC(=O)N(CC(=O)Nc3ccccc3)C1=O)OCO2` the activity change, negative = inhibition was inactive: 26.4% [at 9.22 µM]. In the case of `C=CCn1c(SCCCc2ccccc2)nc2c1c(=O)[nH]c(=O)n2C`, the Potency is reported as “inactive”. In the case of `COC(=O)C1=C(C)N(Cc2ccco2)C(=O)/C1=C\c1ccc([N+](=O)[O-])cc1`, the Potency is reported as inconclusive: 11.2 µM [activator, partial curve]. For `CC(=O)c1cc2c(cc1NC(=O)CSc1nc3ccc(C)cc3[nH]1)OCO2`, the Potency was inconclusive: 6.31 µM [inhibitor, single point]. With `Cc1cc(/C=C(\C#N)C(=O)NCc2cccs2)c(C)n1-c1ccc([N+](=O)[O-])cc1` the Potency was inconclusive: 3.98 µM [activator, single point]. With `CCCCCCCCCCCCCCCCCC[N+](C)(C)CCC[Si](OC)(OC)OC` the Potency was “inactive”. In the case of `O=C(c1ccco1)N1N=C(C2CCCCC2)CC1(O)C(F)(F)F` (stereo not drawn), the Potency is reported as inconclusive: 5.62 µM [inhibitor, single point]. In the case of `CCC1CCCCN1C(=O)Cn1c(=O)n(CCC(=O)NCc2ccco2)c(=O)c2sccc21` (stereo not drawn), the Potency is reported as inconclusive: 3.55 µM [activator, partial curve]. In the case of `CCc1nc(SCC(=O)c2c[nH]c3ccccc23)n[nH]1`, the Potency is reported as “inactive”. With `Cc1noc(C)c1S(=O)(=O)N1CCC(C(=O)N2CCN(c3ccc(Cl)cc3)CC2)CC1` the Potency was inconclusive: 25.1 µM [inhibitor, single point]. With `O=C(CSc1nnnn1C1CCCC1)Nc1ccc(F)cc1` the Potency was “inactive”. In the case of `COc1cc(/C=N/n2cnnc2)ccc1Oc1nc(Cl)ncc1F`, the Potency is reported as inconclusive: 11.2 µM [inhibitor, single point]. With `O=c1onc(-c2ccc(Cl)cc2)n1Cc1ccc(F)cc1` the Potency was inconclusive: 0.562 µM [inhibitor, full curve, poor fit]. In the case of `CSC(=Nc1cccc(C)c1)NC#N`, the Potency is reported as “inactive”. In the case of `Cc1ccc(-n2[nH]c(C)c(/C=N/NC(=O)c3cccc([N+](=O)[O-])c3)c2=O)cc1C`, the Potency is reported as active: 5.01 µM. For `Cc1nc(N2CCN(c3ccccc3)CC2)nc2c1C(=O)CCC2`, the Potency was inconclusive: 35.5 µM [inhibitor, single point]. In the case of `O=C(Nc1ccc(N2CCCCC2)cc1)c1cncc(Br)c1`, the Potency is reported as inconclusive: 8.91 µM [inhibitor, partial curve, poor fit]. In the case of `O=C(CSc1nnc(-c2ccccc2)n1Cc1ccccc1)N1CCOCC1`, the Potency is reported as inconclusive: 5.62 µM [inhibitor, partial curve, poor fit]. In the case of `COc1cccc(CN2CC(O)=C(c3nc(-c4ccc(Cl)cc4)cs3)C2=N)c1`, the Potency is reported as “inactive”. With `CC(Oc1ccc(Cl)cc1Cl)c1nc(-c2ccc(NC(=O)c3cccnc3)cc2)no1` (stereo not drawn) the Potency was active: 7.94 µM. For `COc1ccc(C(c2c(O)ccc3ccccc23)N2CCOCC2)c(OC)c1` (stereo not drawn), the Potency was inconclusive: 35.5 µM [inhibitor, single point]. For `Cn1c(C(=O)c2ccccc2[N+](=O)[O-])nc2ccccc21`, the Potency was “inactive”. For `Cc1ccc2nc(C(F)OC(F)(F)F)[nH]c2c1` (stereo not drawn), the Potency was “inactive”. With `Cc1snc(SCC(=O)c2ccc(F)cc2)c1C#N` the Potency was inconclusive: 35.5 µM [inhibitor, single point]. In the case of `COCCn1c(SCc2cnc(-c3ccccc3)s2)nnc1-c1ccncc1`, the Potency is reported as inconclusive: 12.6 µM [inhibitor, partial curve]. For `Nc1nc(Br)c2ccccc2c1-c1ccc(F)cc1`, the Potency was inconclusive: 4.47 µM [inhibitor, full curve]. In the case of `Clc1ccc2c(c1)CNc1c(ncnc1N1CCOCC1)O2`, the Potency is reported as inconclusive: 35.5 µM [inhibitor, single point]. With `CN(c1ccc(C(=O)N2CCOCC2)cc1[N+](=O)[O-])C1CCCCC1` the Potency was inconclusive: 35.5 µM [activator, partial curve]. With `CC(=O)C1=C(O)C(=O)N(Cc2cccnc2)C1c1ccccc1Cl` (stereo not drawn) the Potency was “inactive”. For `O=C1CC(N(CCc2ccccc2)C(=S)Nc2ccccc2)C(=O)N1c1ccc(Br)cc1` (stereo not drawn), the Potency was inconclusive: 35.5 µM [inhibitor, single point]. With `COc1ccccc1NS(=O)(=O)c1cc([N+](=O)[O-])ccc1N/N=C/c1c(C)[nH]c2ccccc12` the Potency was “inactive”. With `CNc1cnn(-c2ccccc2)c(=O)c1Cl` the Potency was inconclusive: 35.5 µM [inhibitor, single point]. With `C(=N\n1cnc2ccccc21)/c1cccnc1` the Potency was “inactive”. For `Cc1cc(C(=O)Nc2cccc(O)c2)co1`, the Potency was inconclusive: 3.16 µM [inhibitor, single point]. In the case of `C=C(C)C(=O)Nc1cccc(C2=NOC3(C2)C[C@H](C(N)=O)N(C(=O)COc2ccc(Cl)cc2)C3)c1` (stereo partly drawn), the Potency is reported as inconclusive: 1.41 µM [inhibitor, partial curve]. For `Cc1ccc2[nH]c(=O)c(CN(CC3CCCO3)S(=O)(=O)c3c(C)ccc4nsnc34)cc2c1` (stereo not drawn), the activity change, negative = inhibition was inactive: -1.78% [at 9.22 µM]. For `O=C(O)CCCCCNC(=O)Nc1ccc2c(c1)OCCO2`, the Potency was “inactive”. In the case of `CSc1nccc(Oc2cncc(Cl)c2)n1`, the Potency is reported as inconclusive: 8.91 µM [inhibitor, single point]. With `O=C(CN(C(=O)c1ccc(Cl)cc1)N1C(=O)C2CCCCC2C1=O)c1ccc(Cl)cc1` (stereo not drawn) the Potency was “inactive”. With `N#C/C(=C\c1cc2ccccc2nc1N1CCOCC1)C(=O)Nc1ccc(N2CCOCC2)cc1` the Potency was “inactive”. For `S=c1[nH]ncn1NCc1ccc(Cl)cc1Cl`, the Potency was “inactive”. With `Clc1ccc2oc(-c3cccnc3)nc2c1` the Potency was inconclusive: 35.5 µM [inhibitor, single point]. In the case of `CCOc1ccc(S(=O)(=O)N2CCCCC2)c(C)c1C`, the Potency is reported as inconclusive: 12.6 µM [inhibitor, single point]. With `CCOc1ccc(C(=O)c2cccs2)cc1` the Potency was “inactive”. With `Cc1ccc(S(=O)(=O)c2cc3c(=O)n4ccccc4nc3n(Cc3ccco3)c2=N)cc1` the Potency was inconclusive: 15.8 µM [activator, single point].
